Measurements published in article PMC8939790.
Results are given in words; binding and its absence hold for the method and conditions named. In cells and extracts the contact can be indirect. A yes stands for co-enrichment or nearness to the bait. Other partners may have been found.

Chains of the proteins cited; added tags and fusions are not shown. Lines headed by an entry give the natural chain unless they say otherwise; changes in a name come on top.
UniProt E9BSI5: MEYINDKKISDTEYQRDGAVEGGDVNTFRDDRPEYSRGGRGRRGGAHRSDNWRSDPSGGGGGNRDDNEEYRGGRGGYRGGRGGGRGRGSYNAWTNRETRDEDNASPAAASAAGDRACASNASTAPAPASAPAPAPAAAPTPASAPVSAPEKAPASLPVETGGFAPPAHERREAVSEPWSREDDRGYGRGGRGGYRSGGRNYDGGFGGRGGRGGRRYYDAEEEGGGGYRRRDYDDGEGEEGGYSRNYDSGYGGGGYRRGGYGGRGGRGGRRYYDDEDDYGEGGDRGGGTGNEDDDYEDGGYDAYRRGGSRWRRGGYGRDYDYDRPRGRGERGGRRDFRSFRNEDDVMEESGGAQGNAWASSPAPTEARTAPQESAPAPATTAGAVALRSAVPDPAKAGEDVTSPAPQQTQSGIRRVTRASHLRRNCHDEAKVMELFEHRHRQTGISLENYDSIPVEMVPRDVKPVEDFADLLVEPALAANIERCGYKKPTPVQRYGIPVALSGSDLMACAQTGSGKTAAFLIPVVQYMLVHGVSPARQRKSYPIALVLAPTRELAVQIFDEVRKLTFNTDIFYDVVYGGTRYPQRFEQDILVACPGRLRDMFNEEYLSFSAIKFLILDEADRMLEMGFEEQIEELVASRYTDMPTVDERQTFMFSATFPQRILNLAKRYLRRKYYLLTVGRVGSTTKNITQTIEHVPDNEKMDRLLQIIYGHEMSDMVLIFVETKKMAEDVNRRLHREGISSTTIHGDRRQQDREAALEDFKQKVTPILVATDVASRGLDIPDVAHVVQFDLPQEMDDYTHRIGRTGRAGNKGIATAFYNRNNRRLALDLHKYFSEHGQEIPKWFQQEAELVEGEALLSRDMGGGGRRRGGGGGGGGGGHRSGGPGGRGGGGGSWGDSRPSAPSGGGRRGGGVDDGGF
UniProt A0A3S5H4X0: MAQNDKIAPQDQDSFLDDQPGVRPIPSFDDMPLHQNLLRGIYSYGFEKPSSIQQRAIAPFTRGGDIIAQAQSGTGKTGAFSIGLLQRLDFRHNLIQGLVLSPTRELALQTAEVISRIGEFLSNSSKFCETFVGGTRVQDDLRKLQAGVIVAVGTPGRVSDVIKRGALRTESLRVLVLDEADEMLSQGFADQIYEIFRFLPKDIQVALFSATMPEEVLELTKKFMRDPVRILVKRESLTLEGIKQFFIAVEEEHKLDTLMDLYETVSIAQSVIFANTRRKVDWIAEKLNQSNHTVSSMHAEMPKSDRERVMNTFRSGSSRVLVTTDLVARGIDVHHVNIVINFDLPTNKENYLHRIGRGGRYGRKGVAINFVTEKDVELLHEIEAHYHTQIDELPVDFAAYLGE
UniProt A0A3S5H6R7: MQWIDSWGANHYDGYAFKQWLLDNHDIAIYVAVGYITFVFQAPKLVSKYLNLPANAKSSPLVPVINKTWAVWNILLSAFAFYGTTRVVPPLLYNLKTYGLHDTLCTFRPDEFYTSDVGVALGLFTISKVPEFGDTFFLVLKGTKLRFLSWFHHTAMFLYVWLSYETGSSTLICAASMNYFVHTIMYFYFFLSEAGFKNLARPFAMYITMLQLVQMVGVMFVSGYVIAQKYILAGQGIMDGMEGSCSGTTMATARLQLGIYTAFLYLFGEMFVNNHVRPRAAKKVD
UniProt A0A3S7X1F5: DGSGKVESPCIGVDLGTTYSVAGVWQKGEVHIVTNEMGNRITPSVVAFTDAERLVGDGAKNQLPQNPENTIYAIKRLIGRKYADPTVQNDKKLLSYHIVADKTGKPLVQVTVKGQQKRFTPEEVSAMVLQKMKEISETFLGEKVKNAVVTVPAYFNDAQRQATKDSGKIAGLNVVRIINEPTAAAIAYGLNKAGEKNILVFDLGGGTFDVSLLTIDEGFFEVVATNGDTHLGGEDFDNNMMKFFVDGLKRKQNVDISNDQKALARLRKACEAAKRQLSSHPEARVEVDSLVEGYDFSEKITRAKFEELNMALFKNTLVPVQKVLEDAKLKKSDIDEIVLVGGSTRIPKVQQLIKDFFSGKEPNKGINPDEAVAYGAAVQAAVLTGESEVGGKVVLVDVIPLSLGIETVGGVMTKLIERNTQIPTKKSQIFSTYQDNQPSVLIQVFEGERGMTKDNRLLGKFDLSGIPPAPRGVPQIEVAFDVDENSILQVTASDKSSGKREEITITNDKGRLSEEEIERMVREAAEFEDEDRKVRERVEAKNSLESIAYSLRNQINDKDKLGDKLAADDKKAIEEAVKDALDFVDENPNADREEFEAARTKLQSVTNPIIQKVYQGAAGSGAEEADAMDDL
UniProt A0A3S5H503: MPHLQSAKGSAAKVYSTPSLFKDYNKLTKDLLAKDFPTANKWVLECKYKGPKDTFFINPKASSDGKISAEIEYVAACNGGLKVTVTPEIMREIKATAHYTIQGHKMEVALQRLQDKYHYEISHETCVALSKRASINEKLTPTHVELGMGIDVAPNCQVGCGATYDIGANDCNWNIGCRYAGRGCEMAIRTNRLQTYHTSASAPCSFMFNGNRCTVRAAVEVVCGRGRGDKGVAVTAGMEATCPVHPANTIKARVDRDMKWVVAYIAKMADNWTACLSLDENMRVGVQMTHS
UniProt A0A3Q8IGZ3: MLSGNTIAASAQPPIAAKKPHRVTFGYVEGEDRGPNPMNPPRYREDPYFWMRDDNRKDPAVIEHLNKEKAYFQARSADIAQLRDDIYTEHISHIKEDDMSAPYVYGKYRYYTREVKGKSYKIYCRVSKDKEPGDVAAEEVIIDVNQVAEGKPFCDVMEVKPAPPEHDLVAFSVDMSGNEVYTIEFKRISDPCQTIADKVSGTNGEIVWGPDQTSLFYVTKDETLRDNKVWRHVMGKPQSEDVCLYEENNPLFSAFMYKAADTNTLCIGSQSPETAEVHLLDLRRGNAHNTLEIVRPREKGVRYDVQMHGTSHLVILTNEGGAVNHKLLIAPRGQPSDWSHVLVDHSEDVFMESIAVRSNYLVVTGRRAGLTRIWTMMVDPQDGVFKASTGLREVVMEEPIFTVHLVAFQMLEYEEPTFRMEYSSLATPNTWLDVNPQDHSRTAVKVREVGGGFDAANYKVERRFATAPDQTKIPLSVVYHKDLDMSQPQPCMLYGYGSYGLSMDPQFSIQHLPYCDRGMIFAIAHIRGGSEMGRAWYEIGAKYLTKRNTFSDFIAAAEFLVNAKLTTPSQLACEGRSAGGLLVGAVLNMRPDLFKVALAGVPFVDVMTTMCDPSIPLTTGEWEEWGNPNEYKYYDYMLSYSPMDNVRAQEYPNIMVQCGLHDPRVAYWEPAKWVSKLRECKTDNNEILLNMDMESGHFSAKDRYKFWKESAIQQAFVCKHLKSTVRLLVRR
UniProt A0A3Q8IAP5: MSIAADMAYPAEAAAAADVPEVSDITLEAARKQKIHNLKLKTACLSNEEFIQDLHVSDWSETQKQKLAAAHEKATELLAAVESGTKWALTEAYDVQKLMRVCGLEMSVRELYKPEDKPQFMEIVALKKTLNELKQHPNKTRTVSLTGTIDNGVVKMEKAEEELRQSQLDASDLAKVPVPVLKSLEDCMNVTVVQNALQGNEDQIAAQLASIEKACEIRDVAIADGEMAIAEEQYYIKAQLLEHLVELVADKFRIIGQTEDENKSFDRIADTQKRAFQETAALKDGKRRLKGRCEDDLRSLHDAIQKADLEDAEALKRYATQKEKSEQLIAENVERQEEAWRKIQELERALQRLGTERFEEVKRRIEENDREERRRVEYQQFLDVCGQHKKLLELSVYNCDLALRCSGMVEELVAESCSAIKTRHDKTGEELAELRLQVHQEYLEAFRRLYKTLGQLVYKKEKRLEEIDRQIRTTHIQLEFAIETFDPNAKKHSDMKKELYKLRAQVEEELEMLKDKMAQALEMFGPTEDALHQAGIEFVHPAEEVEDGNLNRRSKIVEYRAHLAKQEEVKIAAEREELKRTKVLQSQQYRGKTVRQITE
UniProt A0A3Q8IF60: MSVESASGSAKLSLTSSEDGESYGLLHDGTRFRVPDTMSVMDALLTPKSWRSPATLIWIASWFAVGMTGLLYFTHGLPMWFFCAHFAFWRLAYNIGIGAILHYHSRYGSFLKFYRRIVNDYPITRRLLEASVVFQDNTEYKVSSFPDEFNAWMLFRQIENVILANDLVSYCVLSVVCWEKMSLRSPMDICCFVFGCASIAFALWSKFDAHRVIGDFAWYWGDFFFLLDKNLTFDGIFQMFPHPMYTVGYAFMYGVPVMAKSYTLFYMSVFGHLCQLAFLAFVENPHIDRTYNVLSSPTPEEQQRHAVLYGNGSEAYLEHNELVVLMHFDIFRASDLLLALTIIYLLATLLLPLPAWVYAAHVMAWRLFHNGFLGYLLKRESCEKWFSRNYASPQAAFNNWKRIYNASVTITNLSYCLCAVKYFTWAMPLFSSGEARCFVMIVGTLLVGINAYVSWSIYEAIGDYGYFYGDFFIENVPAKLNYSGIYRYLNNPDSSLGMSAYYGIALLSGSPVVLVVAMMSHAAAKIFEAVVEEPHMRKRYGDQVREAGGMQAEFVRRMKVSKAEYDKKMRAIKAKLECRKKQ
UniProt A0A3Q8IFJ7: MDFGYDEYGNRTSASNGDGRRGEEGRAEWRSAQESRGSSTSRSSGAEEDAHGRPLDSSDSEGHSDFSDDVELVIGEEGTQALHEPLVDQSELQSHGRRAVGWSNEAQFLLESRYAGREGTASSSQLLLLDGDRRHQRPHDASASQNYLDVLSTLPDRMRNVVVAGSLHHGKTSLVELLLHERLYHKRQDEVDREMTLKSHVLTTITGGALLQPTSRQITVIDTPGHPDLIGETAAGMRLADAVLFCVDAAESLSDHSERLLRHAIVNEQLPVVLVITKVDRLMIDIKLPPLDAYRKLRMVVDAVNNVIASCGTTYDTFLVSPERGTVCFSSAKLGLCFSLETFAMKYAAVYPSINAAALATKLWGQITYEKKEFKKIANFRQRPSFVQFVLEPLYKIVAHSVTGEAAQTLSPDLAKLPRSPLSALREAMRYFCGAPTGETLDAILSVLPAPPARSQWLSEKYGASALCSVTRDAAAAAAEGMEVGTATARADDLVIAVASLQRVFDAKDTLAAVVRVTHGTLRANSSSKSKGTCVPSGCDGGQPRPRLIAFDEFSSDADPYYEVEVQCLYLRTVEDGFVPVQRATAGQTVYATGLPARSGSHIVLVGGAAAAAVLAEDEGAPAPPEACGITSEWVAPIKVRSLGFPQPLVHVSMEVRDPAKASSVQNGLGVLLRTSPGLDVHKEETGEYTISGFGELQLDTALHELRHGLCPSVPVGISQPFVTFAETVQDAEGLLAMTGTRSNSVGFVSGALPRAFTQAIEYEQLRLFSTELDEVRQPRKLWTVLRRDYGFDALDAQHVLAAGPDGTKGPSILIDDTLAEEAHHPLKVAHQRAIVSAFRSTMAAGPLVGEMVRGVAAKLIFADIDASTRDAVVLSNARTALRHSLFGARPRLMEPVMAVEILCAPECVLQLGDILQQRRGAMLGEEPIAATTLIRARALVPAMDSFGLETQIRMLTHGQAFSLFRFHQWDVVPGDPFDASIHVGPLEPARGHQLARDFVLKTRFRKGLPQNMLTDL
UniProt A0A3Q8IIK1: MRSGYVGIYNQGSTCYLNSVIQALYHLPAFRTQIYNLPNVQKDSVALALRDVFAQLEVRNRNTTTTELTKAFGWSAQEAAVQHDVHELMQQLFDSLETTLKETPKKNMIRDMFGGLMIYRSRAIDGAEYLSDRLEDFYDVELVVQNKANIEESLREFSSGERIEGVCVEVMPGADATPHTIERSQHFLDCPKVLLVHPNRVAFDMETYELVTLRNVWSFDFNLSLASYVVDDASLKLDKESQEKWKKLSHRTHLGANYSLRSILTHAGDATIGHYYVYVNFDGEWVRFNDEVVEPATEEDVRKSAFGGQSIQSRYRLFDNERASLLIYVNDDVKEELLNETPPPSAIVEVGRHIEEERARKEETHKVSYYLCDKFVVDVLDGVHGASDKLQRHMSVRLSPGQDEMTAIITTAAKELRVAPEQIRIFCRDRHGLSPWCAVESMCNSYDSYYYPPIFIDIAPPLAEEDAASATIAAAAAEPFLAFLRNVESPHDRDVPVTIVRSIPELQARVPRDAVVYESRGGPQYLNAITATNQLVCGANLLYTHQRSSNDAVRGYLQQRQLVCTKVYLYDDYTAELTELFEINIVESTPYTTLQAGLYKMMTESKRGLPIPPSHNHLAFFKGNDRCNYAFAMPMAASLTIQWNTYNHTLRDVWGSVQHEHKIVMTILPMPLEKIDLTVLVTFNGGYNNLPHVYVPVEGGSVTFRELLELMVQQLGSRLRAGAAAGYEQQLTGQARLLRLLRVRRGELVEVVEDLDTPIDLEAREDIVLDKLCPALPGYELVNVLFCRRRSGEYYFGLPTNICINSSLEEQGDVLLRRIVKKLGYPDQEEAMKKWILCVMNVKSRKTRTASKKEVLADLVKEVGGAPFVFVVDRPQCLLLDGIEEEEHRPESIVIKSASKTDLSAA

Each substance was assayed against GST-tagged Leishmania donovani profilin (Leishmania donovani) (assay: affinity purification with mass spectrometry; purified GST-LdPfn or GST alone on glutathione-Sepharose beads, incubated with 2 mg clear lysate of L. donovani promastigotes overnight at 4°C, five washes with 1x PBS, eluted by boiling in SDS loading buffer, SDS-PAGE, LC-MS (Orbitrap Fusion); three biological replicates; only the target purified).
With “AAA domain/Dpy-30 motif-containing protein, putative (from UniProt E9BBJ9)” the binding was “binds”.
With “ATP-dependent RNA helicase, putative (from UniProt E9BSI5)” the binding was “binds”.
With “Aconitase, putative (from UniProt A0A3Q8IAZ4)” the binding was “binds”.
For Actin (from UniProt C6KJC7), the binding was “binds”.
In the case of “Dihydrolipoamide acetyltransferase precursor, putative (from UniProt A0A3Q8IJE7)”, the binding is reported as “binds”.
“Dipeptidyl-peptidase III, putative (from UniProt A0A3S7WP65)” was tested, and the binding was “binds”.
With “Elongation factor 2 (from UniProt A0A3Q8IIX7)” the binding was “binds”.
In the case of “Eukaryotic initiation factor 4A-1 (from UniProt A0A3S5H4X0)”, the binding is reported as “binds”.
With “Eukaryotic translation initiation factor 3 subunit a (from UniProt A0A3Q8IDU4)” the binding was “binds”.
In the case of “Fatty acid elongase, putative (LDBPK_140670.1) (from UniProt A0A3S5H6R7)”, the binding is reported as “binds”.
With “Fatty acid elongase, putative (LDBPK_140700.1) (from UniProt A0A3S5H6R8)” the binding was “binds”.
For “Gamma-tubulin complex component 3-like protein (from UniProt A0A3Q8IKN4)”, the binding was “binds”.
For “Glyceraldehyde-3- phosphate dehydrogenase, cytosolic (from UniProt A0A3Q8IJ37)”, the binding was “binds”.
With “Isoleucyl-tRNA synthetase, putative (from UniProt A0A3Q8IPR2)” the binding was “binds”.
In the case of “Long-chain fatty Acyl CoA synthetase, putative (from UniProt A0A451EJM7)”, the binding is reported as “binds”.
With “Luminal binding protein 1 (BiP), putative (from UniProt A0A3S7X1F5)” the binding was “binds”.
With “Membrane-bound acid phosphatase 2, putative (from UniProt A0A3Q8IR23)” the binding was “binds”.
With “Mitochondrial outer membrane protein porin, putative (from UniProt A0A3S5H503)” the binding was “binds”.
In the case of “Oligopeptidase b (OBP) (from UniProt A0A3Q8IGZ3)”, the binding is reported as “binds”.
In the case of “Paraflagellar rod protein 2C (from UniProt A0A3Q8IAP5)”, the binding is reported as “binds”.
For “Phosphatidylethanolamine-methyltransferase-like protein (from UniProt A0A3Q8IF60)”, the binding was “binds”.
“Proteasome regulatory non-ATPase subunit 2, putative (from UniProt A0A3Q8IEW8)” was tested, and the binding was “binds”.
In the case of “Proteasome regulatory non-ATPase subunit, putative (from UniProt A0A3S7X246)”, the binding is reported as “binds”.
“Succinate dehydrogenase [ubiquinone] flavoprotein subunit, mitochondrial (from UniProt A0A3Q8ID36)” was tested, and the binding was “binds”.
For Transketolase (from UniProt A0A3S5H7D7), the binding was “binds”.
“U5 small nuclear ribonucleoprotein component, putative (from UniProt A0A3Q8IFJ7)” was tested, and the binding was “binds”.
“Ubiquitin hydrolase, putative (from UniProt A0A3Q8IIK1)” was tested, and the binding was “binds”.
